The target of experiment [1] is human TrkA receptor on the cell surface (human, UniProt P04629 33-796). The experiment is described as follows: flow cytometry on TF-1 cells. On the technique in general: Flow cytometry measures light scatter and fluorescence of single cells or particles in a stream.
The next experiment addresses T1, TrkA-IgG (UniProt P04629 33-423, limits assumed).
T1 construct: also called specific antigen TrkA-IgG; not shown: IgG part of the fusion
The experiment is described as follows: ELISA, TrkA-IgG coated at 1 µg/ml, COS-7 supernatant at 5 ng/ml antibody, HRP-labelled secondary antibody, OD450/630 nm. A general note: ELISA stands for enzyme-linked immunosorbent assay.

Protein sequences, listed by entry. Tags and fused reporters are not part of them. Lines headed by an entry give the natural chain unless they say otherwise; changes in a name come on top.
UniProt P04629: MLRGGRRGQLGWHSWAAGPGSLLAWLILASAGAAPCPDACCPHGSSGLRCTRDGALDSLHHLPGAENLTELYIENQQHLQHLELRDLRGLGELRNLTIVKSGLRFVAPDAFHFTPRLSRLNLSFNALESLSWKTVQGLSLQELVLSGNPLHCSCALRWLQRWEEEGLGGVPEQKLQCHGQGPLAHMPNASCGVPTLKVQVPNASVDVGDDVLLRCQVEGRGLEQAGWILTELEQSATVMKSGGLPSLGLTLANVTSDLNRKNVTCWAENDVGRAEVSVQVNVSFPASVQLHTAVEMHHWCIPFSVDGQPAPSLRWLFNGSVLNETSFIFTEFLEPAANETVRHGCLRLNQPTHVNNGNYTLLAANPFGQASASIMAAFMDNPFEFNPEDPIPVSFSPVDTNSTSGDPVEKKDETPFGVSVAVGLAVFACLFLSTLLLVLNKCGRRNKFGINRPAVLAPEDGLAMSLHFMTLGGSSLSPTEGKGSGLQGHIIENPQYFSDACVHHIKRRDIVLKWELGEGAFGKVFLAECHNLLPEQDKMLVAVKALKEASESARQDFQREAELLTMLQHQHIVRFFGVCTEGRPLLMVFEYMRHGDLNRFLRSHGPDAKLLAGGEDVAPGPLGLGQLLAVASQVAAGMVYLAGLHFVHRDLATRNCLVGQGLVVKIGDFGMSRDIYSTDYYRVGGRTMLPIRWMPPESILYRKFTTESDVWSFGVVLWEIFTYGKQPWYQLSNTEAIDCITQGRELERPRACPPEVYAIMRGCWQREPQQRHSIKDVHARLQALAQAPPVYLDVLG

Experimental findings from patent US20110145941A1 (LAY LINE GENOMICS S P A, published 2011) are described below.

No constants are given. Whether binding was seen depends on the method and setting. Some entries that bind do so weakly or less than the wild type.

B1: BXhVH2VL7 (antibody, human IgG1, V domains shown)
VH: EVQLLESGGGLVQPGGSLRLSCAASGFTFSTYTMSWVRQTPGKRLEWVAYISKGGGSTYYPDTVKGRFTISRDNSKNTLYLQMNSLRAEDTAVYYCAKGAMYGNDFFYPMDYWGQGTTVTVSS
VL: QIVLTQSPATLSLSPGERATLSCSASSSVSYMHWYQQKPGQSPRLLIYTTSNLASGIPSRFSGSGSGTFYTLTISSLEPEDAADYYCHQWSSYPWTFGGGTKLEIK
notes: Human IgG1 constant regions (IgG1 expression vectors); COS-7 supernatant; also called hVH2/hVL7
On to B1, for which the binding entry (in experiment [1]; with TrkA-IgG) was “binds” throughout.

B2: HuMNACWOv (antibody, V domains shown)
VH: EVQLLESGGGLVQPGGSLRLSCAASGFTFSTYTMSWARQAPGKGLEWVAYISKGGGSTYYPDTVKGRFTISRDNSKNTLYLQMNSLRAEDSAVYYCARGAMYGNDFFYPMDYWGQGTLVTVSS
VL: DIVLTQSPSSLSASVGDRVTITCSASSSVSYMHWYQQKPGQAPKLLIYTTSNLASGVPSRFSGSGSGTDYTLTISSLQPEDVATYYCHQWSSYPWTFGGGTKVEIK
notes: Variant of HuMNACWO whose heavy chain CDR3 is replaced with that of muMNACEP; also called hVHWOv/hVLWO; HuVHWOv/HuVLWO
Regarding B2, in the experiment with TrkA-IgG, the binding entry is “binds”.

B3: BXhVH1VL7 (antibody, human IgG1, V domains shown)
VH: EVKLLESGGGLVQPGGSLRLSCAASGFTFSTYTMSWVRQTPGKGLEWVAYISKGGGSTYYPDTVKGRFTISRDNSKNTLYLQMNSLRAEDTAVYYCAKGAMYGNDFFYPMDYWGQGTTVTVSS
VL: QIVLTQSPATLSLSPGERATLSCSASSSVSYMHWYQQKPGQSPRLLIYTTSNLASGIPSRFSGSGSGTFYTLTISSLEPEDAADYYCHQWSSYPWTFGGGTKLEIK
notes: Human IgG1 constant regions (IgG1 expression vectors); COS-7 supernatant; also called hVH1/hVL7
In the case of B3, the binding entry (in experiment [1]; with TrkA-IgG) was “binds” each time.

B4: BXhVH1VL8 (antibody, human IgG1, V domains shown)
VH: EVKLLESGGGLVQPGGSLRLSCAASGFTFSTYTMSWVRQTPGKGLEWVAYISKGGGSTYYPDTVKGRFTISRDNSKNTLYLQMNSLRAEDTAVYYCAKGAMYGNDFFYPMDYWGQGTTVTVSS
VL: QIVLTQSPATLSLSPGEEATLSCSASSSVSYMHWYQQKSGTSPRLLIYTTSNLASGIPSRFSGSGSGTFYTLTISSLEPEDAADYYCHQWSSYPWTFGGGTKLEIK
notes: Human IgG1 constant regions (IgG1 expression vectors); COS-7 supernatant; also called hVH1/hVL8
For B4, the binding entry (in experiment [1]; with TrkA-IgG) was “binds” throughout.

B5: BXhVH1VL4 (antibody, human IgG1, V domains shown)
VH: EVKLLESGGGLVQPGGSLRLSCAASGFTFSTYTMSWVRQTPGKGLEWVAYISKGGGSTYYPDTVKGRFTISRDNSKNTLYLQMNSLRAEDTAVYYCAKGAMYGNDFFYPMDYWGQGTTVTVSS
VL: QIVLTQSPATLSLSPGERATLSCSASSSVSYMHWYQQKPGQSPRLLIYTTSNLASGIPSRFSGSGSGTDFTLTISSLEPEDAADYYCHQWSSYPWTFGGGTKLEIK
notes: Human IgG1 constant regions (IgG1 expression vectors); COS-7 supernatant; also called hVH1/hVL4
Take B5: the binding entry (in experiment [1]; with TrkA-IgG) was “binds” each time.

B6: BXhVH2VL4 (antibody, human IgG1, V domains shown)
VH: EVQLLESGGGLVQPGGSLRLSCAASGFTFSTYTMSWVRQTPGKRLEWVAYISKGGGSTYYPDTVKGRFTISRDNSKNTLYLQMNSLRAEDTAVYYCAKGAMYGNDFFYPMDYWGQGTTVTVSS
VL: QIVLTQSPATLSLSPGERATLSCSASSSVSYMHWYQQKPGQSPRLLIYTTSNLASGIPSRFSGSGSGTDFTLTISSLEPEDAADYYCHQWSSYPWTFGGGTKLEIK
notes: Human IgG1 constant regions (IgG1 expression vectors); COS-7 supernatant; also called hVH2/hVL4
Turning to B6, the binding result (in experiment [1]; with TrkA-IgG) was “binds” in each case.

B7: BXhVH1VL3 (antibody, human IgG1, V domains shown)
VH: EVKLLESGGGLVQPGGSLRLSCAASGFTFSTYTMSWVRQTPGKGLEWVAYISKGGGSTYYPDTVKGRFTISRDNSKNTLYLQMNSLRAEDTAVYYCAKGAMYGNDFFYPMDYWGQGTTVTVSS
VL: QIVLTQSPATLSLSPGERATLSCSASSSVSYMHWYQQKPGQSPRLLIYTTSNLASGIPSRFSGSGSGTFYTLTISSLEPEDFAVYYCHQWSSYPWTFGGGTKLEIK
notes: Human IgG1 constant regions (IgG1 expression vectors); COS-7 supernatant; also called hVH1/hVL3
On to B7, for which the binding entry (in experiment [1]; with TrkA-IgG) was “binds” in each case.

B8: BXhVH2VL6 (antibody, human IgG1, V domains shown)
VH: EVQLLESGGGLVQPGGSLRLSCAASGFTFSTYTMSWVRQTPGKRLEWVAYISKGGGSTYYPDTVKGRFTISRDNSKNTLYLQMNSLRAEDTAVYYCAKGAMYGNDFFYPMDYWGQGTTVTVSS
VL: EIVLTQSPATLSLSPGEEATLSCSASSSVSYMHWYQQKPGQSPRLLIYTTSNLASGIPSRFSGSGSGTFYTLTISSLEPEDAADYYCHQWSSYPWTFGGGTKLEIK
notes: Human IgG1 constant regions (IgG1 expression vectors); COS-7 supernatant; also called hVH2/hVL6
Take B8: the binding result (in experiment [1]; with TrkA-IgG) was “binds” throughout.

B9: BXhVH2VL5 (antibody, human IgG1, V domains shown)
VH: EVQLLESGGGLVQPGGSLRLSCAASGFTFSTYTMSWVRQTPGKRLEWVAYISKGGGSTYYPDTVKGRFTISRDNSKNTLYLQMNSLRAEDTAVYYCAKGAMYGNDFFYPMDYWGQGTTVTVSS
VL: QIVLTQSPATLSLSPGERATLSCSASSSVSYMHWYQQKPGQSPRLLIYTTSNLASGIPSRFSGSGSGTDYTLTISSLEPEDAADYYCHQWSSYPWTFGQGTKLEIK
notes: Human IgG1 constant regions (IgG1 expression vectors); COS-7 supernatant; also called hVH2/hVL5
As to B9, the binding entry (in experiment [1]; in the experiment with TrkA-IgG) was “binds” throughout.

B10: BXhVH2VL3 (antibody, human IgG1, V domains shown)
VH: EVQLLESGGGLVQPGGSLRLSCAASGFTFSTYTMSWVRQTPGKRLEWVAYISKGGGSTYYPDTVKGRFTISRDNSKNTLYLQMNSLRAEDTAVYYCAKGAMYGNDFFYPMDYWGQGTTVTVSS
VL: QIVLTQSPATLSLSPGERATLSCSASSSVSYMHWYQQKPGQSPRLLIYTTSNLASGIPSRFSGSGSGTFYTLTISSLEPEDFAVYYCHQWSSYPWTFGGGTKLEIK
notes: Human IgG1 constant regions (IgG1 expression vectors); COS-7 supernatant; also called hVH2/hVL3
Turning to B10, the binding entry (in experiment [1]; with TrkA-IgG) was “binds” in each case.

B11: BXhVH3VL1 (antibody, human IgG1, V domains shown)
VH: EVQLLESGGGLVQPGGSLRLSCAASGFTFSTYTMSWVRQAPGKRLEWVAYISKGGGSTYYPDTVKGRFTISRDNSKNTLYLQMNSLRAEDTAVYYCARGAMYGNDFFYPMDYWGQGTTVTVSS
VL: EIVLTQSPATLSLSPGERATLSCSASSSVSYMHWYQQKPGQAPRLLIYTTSNLASGIPARFSGSGSGTDFTLTISSLEPEDFAVYYCHQWSSYPWTFGQGTKLEIK
notes: Human IgG1 constant regions (IgG1 expression vectors); COS-7 supernatant; also called hVH3/hVL1
B11: the binding entry (in experiment [1]; with TrkA-IgG) was “binds” throughout.

B12: BXhVH2VL1 (antibody, human IgG1, V domains shown)
VH: EVQLLESGGGLVQPGGSLRLSCAASGFTFSTYTMSWVRQTPGKRLEWVAYISKGGGSTYYPDTVKGRFTISRDNSKNTLYLQMNSLRAEDTAVYYCAKGAMYGNDFFYPMDYWGQGTTVTVSS
VL: EIVLTQSPATLSLSPGERATLSCSASSSVSYMHWYQQKPGQAPRLLIYTTSNLASGIPARFSGSGSGTDFTLTISSLEPEDFAVYYCHQWSSYPWTFGQGTKLEIK
notes: Human IgG1 constant regions (IgG1 expression vectors); COS-7 supernatant; also called hVH2/hVL1
As to B12, the binding entry (in experiment [1]; with TrkA-IgG) was “binds” throughout.

B13: BXhVH2VL8 (antibody, human IgG1, V domains shown)
VH: EVQLLESGGGLVQPGGSLRLSCAASGFTFSTYTMSWVRQTPGKRLEWVAYISKGGGSTYYPDTVKGRFTISRDNSKNTLYLQMNSLRAEDTAVYYCAKGAMYGNDFFYPMDYWGQGTTVTVSS
VL: QIVLTQSPATLSLSPGEEATLSCSASSSVSYMHWYQQKSGTSPRLLIYTTSNLASGIPSRFSGSGSGTFYTLTISSLEPEDAADYYCHQWSSYPWTFGGGTKLEIK
notes: Human IgG1 constant regions (IgG1 expression vectors); COS-7 supernatant; also called hVH2/hVL8
As for B13, the binding entry (in experiment [1]; with TrkA-IgG) was “binds” in each case.

B14: BXhVH1VL6 (antibody, human IgG1, V domains shown)
VH: EVKLLESGGGLVQPGGSLRLSCAASGFTFSTYTMSWVRQTPGKGLEWVAYISKGGGSTYYPDTVKGRFTISRDNSKNTLYLQMNSLRAEDTAVYYCAKGAMYGNDFFYPMDYWGQGTTVTVSS
VL: EIVLTQSPATLSLSPGEEATLSCSASSSVSYMHWYQQKPGQSPRLLIYTTSNLASGIPSRFSGSGSGTFYTLTISSLEPEDAADYYCHQWSSYPWTFGGGTKLEIK
notes: Human IgG1 constant regions (IgG1 expression vectors); COS-7 supernatant; also called hVH1/hVL6
Regarding B14, the binding entry (in experiment [1]; with TrkA-IgG) was “binds” throughout.

B15: BXhVH1VL5 (antibody, human IgG1, V domains shown)
VH: EVKLLESGGGLVQPGGSLRLSCAASGFTFSTYTMSWVRQTPGKGLEWVAYISKGGGSTYYPDTVKGRFTISRDNSKNTLYLQMNSLRAEDTAVYYCAKGAMYGNDFFYPMDYWGQGTTVTVSS
VL: QIVLTQSPATLSLSPGERATLSCSASSSVSYMHWYQQKPGQSPRLLIYTTSNLASGIPSRFSGSGSGTDYTLTISSLEPEDAADYYCHQWSSYPWTFGQGTKLEIK
notes: Human IgG1 constant regions (IgG1 expression vectors); COS-7 supernatant; also called hVH1/hVL5
On to B15, for which the binding entry (in experiment [1]; in the experiment with TrkA-IgG) was “binds” in each case.

B16: BXhVH1VL1 (antibody, human IgG1, V domains shown)
VH: EVKLLESGGGLVQPGGSLRLSCAASGFTFSTYTMSWVRQTPGKGLEWVAYISKGGGSTYYPDTVKGRFTISRDNSKNTLYLQMNSLRAEDTAVYYCAKGAMYGNDFFYPMDYWGQGTTVTVSS
VL: EIVLTQSPATLSLSPGERATLSCSASSSVSYMHWYQQKPGQAPRLLIYTTSNLASGIPARFSGSGSGTDFTLTISSLEPEDFAVYYCHQWSSYPWTFGQGTKLEIK
notes: Human IgG1 constant regions (IgG1 expression vectors); COS-7 supernatant; also called hVH1/hVL1
Consider B16, for which the binding result (in experiment [1]; with TrkA-IgG) was “binds” each time.

B17: BXhVH1VL2 (antibody, human IgG1, V domains shown)
VH: EVKLLESGGGLVQPGGSLRLSCAASGFTFSTYTMSWVRQTPGKGLEWVAYISKGGGSTYYPDTVKGRFTISRDNSKNTLYLQMNSLRAEDTAVYYCAKGAMYGNDFFYPMDYWGQGTTVTVSS
VL: EIVLTQSPATLSLSPGERATLSCSASSSVSYMHWYQQKPGQSPRLLIYTTSNLASGIPSRFSGSGSGTDFTLTISSLEPEDAADYYCHQWSSYPWTFGQGTKLEIK
notes: Human IgG1 constant regions (IgG1 expression vectors); COS-7 supernatant; also called hVH1/hVL2
Turning to B17, the binding result (in experiment [1]; with TrkA-IgG) was “binds” in each case.

B18: BXhVH2VL2 (antibody, human IgG1, V domains shown)
VH: EVQLLESGGGLVQPGGSLRLSCAASGFTFSTYTMSWVRQTPGKRLEWVAYISKGGGSTYYPDTVKGRFTISRDNSKNTLYLQMNSLRAEDTAVYYCAKGAMYGNDFFYPMDYWGQGTTVTVSS
VL: EIVLTQSPATLSLSPGERATLSCSASSSVSYMHWYQQKPGQSPRLLIYTTSNLASGIPSRFSGSGSGTDFTLTISSLEPEDAADYYCHQWSSYPWTFGQGTKLEIK
notes: Human IgG1 constant regions (IgG1 expression vectors); COS-7 supernatant; also called hVH2/hVL2
Consider B18, for which the binding entry (in experiment [1]; with TrkA-IgG) was “binds” each time.

B19: ChimMNAC13 (antibody, V domains shown)
VH: EVKLMESGGGLVQPGGSLKLSCAASGFTFSTYTMSWARQTPEKRLEWVAYISKGGGSTYYPDTVKGRFTISRDNAKNTLYLQMSSLKSEDTALYYCARGAMYGNDFFYPMDYWGQQTSVTVSS
VL: DIVLSQSPAIMSASLGEEITLTCSASSSVSYMHWYQQKSGTSPKLLITTTSNLASGVPSRFSGSGSGTFYSLTISSVEAEDAADYYCHQWSSYPWTFGGGTKLEIK
notes: Corresponds to muMNACEP but has human constant regions instead of mouse constant regions; also called chimNINAC13; mVHEP/mVLEP
As for B19, the binding result with TrkA-IgG is listed as “binds”.
